# Measurements reported in PubChem BioAssay AID1259425 (University of Nebraska Medical Center, 2018)
# Purpose: 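Find knockdowns that reproduce the gene expression pattern seen when KSR1 is lost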 (primary screen)
# Cell system: HCT116 human colon cancer cells
# Reagent: siRNA pool against human genes, 50 nM siRNA
# Measurement: 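mRNA of six signature genes measured together by branched-DNA assay after 50 nM siRNA pool, blank removed, divided by geometric mean of two housekeeping genes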
# Reading the numbers: BNIP3L mRNA: higher = more BNIP3L transcript after knockdown; NDRG1 mRNA: higher = more NDRG1 transcript after knockdown; BNIP3 mRNA: higher = more BNIP3 transcript after knockdown; ALDOC mRNA: higher = more ALDOC transcript after knockdown; ACSL5 mRNA: higher = more ACSL5 transcript after knockdown
# This is one part, drawn at random, of about 14,000 reagents. No sequences are given here. Not stated in the record: the time to read-out.
gene symbol,"BNIP3L mRNA, set 1","NDRG1 mRNA, set 1","BNIP3 mRNA, set 1","ALDOC mRNA, set 1","ACSL5 mRNA, set 1"
PF4V1,0.204,0.603,0.323,0.0401,0.22
FFAR4,0.121,0.136,0.322,0.0182,0.135
DLGAP3,0.144,0.12,0.268,0.0269,0.255
EHHADH,0.0826,0.152,0.313,0.0233,0.125
DLC1,0.125,0.199,0.335,0.00675,0.289
ZNF253,0.0865,0.2,0.297,0.0421,0.381
RXYLT1,0.109,0.162,0.354,0.0155,0.264
CDK19,0.146,0.362,0.453,0.0185,0.139
ITPKC,0.133,0.342,0.471,0.0233,0.265
CYP27A1,0.0831,0.149,0.288,0.00788,0.241
FBLN5,0.0643,0.198,0.161,0.0102,0.0919
HSD17B12,0.0625,0.139,0.332,0.0211,0.16
KCNH5,0.0781,0.722,0.202,0.00971,0.345
TSC2,0.101,0.0859,0.493,0.0107,0.183
PARD3B,0.137,0.15,0.424,0.0108,0.193
CR1L,0.0576,0.179,0.432,0.0621,0.13
GIMAP2,0.156,0.147,0.561,0.0214,0.166
LZTFL1,0.0971,0.123,0.238,0.0246,0.0978
SNAI1,0.0931,0.415,0.247,0.0106,0.271
LYPLA1,0.128,0.292,0.31,0.019,0.177
DPY19L1,0.0906,0.178,0.303,0.0321,0.102
PLPP3,0.0557,0.156,0.183,0.0374,0.227
MAP3K8,0.148,0.125,0.324,0.0102,0.484
GCNT2,0.123,0.504,0.319,0.0423,0.181
GCK,0.0802,0.0993,0.385,0.0221,0.174
C1QBP,0.0585,0.118,0.196,0.0272,0.0714
DHDDS,0.107,0.13,0.267,0.0566,0.103
RPL36A,0.196,0.31,0.365,0.0136,0.241
HHEX,0.132,0.183,0.268,0.0132,0.138
HNRNPL,0.227,1.4,0.747,0.176,0.241
OXCT2,0.0635,0.146,0.226,0.021,0.131
USP48,0.129,0.121,0.188,0.0597,0.329
CCR7,0.169,0.613,0.22,0.027,0.228
GIT1,0.206,0.445,0.321,0.101,0.257

Quoted from above for reference:
gene symbol,"BNIP3L mRNA, set 1","NDRG1 mRNA, set 1","BNIP3 mRNA, set 1","ALDOC mRNA, set 1","ACSL5 mRNA, set 1"
GIMAP2,0.156,0.147,0.561,0.0214,0.166
LZTFL1,0.0971,0.123,0.238,0.0246,0.0978
SNAI1,0.0931,0.415,0.247,0.0106,0.271
LYPLA1,0.128,0.292,0.31,0.019,0.177
DPY19L1,0.0906,0.178,0.303,0.0321,0.102
PLPP3,0.0557,0.156,0.183,0.0374,0.227
